{"source": "ChEMBL document CHEMBL1687827", "about": "“Profiling the Aspergillus fumigatus proteome in response to caspofungin” (2011)", "assay_type_in_all_cases": "functional", "key": {"[1]": {"test_system": "Aspergillus fumigatus", "test": "Induction of change in Ran-specific GTPase-activating protein 1, putative protein level in iTRAQ-116 labelled secreted fraction of drug-susceptible Aspergillus fumigatus KU80 delta-akuB at 0.12 ug/ml after 48 hrs in YPD medium by MS (MS/MS) analysis relative to control"}, "[2]": {"test_system": "Aspergillus fumigatus", "test": "Induction of change in Translation elongation factor eEF-3, putative protein level in iTRAQ-116 labelled cell wall fraction of drug-resistant Aspergillus fumigatus EMFR-S678P at 0.12 ug/ml after 48 hrs in YPD medium by MS (MS/MS) analysis relative to control"}, "[3]": {"test_system": "Aspergillus fumigatus", "test": "Induction of change in hypothetical gene locus AFUA_3G13080 expression in drug-susceptible Aspergillus fumigatus KU80 delta-akuB at 0.12 ug/ml after 48 hrs in YPD medium by microarray analysis relative to control"}, "[4]": {"test_system": "Aspergillus fumigatus", "test": "Induction of change in 60S ribosomal protein L7 protein level in iTRAQ114 labelled cell wall fraction of drug-resistant Aspergillus fumigatus EMFR-S678P at 0.12 ug/ml after 24 hrs in YPD medium by MS (MS/MS) analysis relative to control"}, "[5]": {"test_system": "Aspergillus fumigatus", "test": "Induction of change in 60S ribosomal protein L44 protein level in iTRAQ114 labelled cell wall fraction of drug-susceptible Aspergillus fumigatus KU80 delta-akuB at 0.12 ug/ml after 24 hrs in YPD medium by MS (MS/MS) analysis relative to control"}, "[6]": {"test_system": "Aspergillus fumigatus", "test": "Induction of change in ribosomal protein L14 protein level in iTRAQ114 labelled cell wall fraction of drug-susceptible Aspergillus fumigatus KU80 delta-akuB at 0.12 ug/ml after 24 hrs in YPD medium by MS (MS/MS) analysis relative to control"}, "[7]": {"test_system": "Aspergillus fumigatus", "test": "Induction of change in 60S ribosomal protein L35Ae protein level in iTRAQ114 labelled cell wall fraction of drug-susceptible Aspergillus fumigatus KU80 delta-akuB at 0.12 ug/ml after 24 hrs in YPD medium by MS (MS/MS) analysis relative to control"}, "[8]": {"test_system": "Aspergillus fumigatus", "test": "Induction of change in Mitochondrial hypoxia-responsive domain protein level in iTRAQ114 labelled cell wall fraction of drug-resistant Aspergillus fumigatus EMFR-S678P at 0.12 ug/ml after 24 hrs in YPD medium by MS (MS/MS) analysis relative to control"}, "[9]": {"test_system": "Aspergillus fumigatus", "test": "Induction of change in tripeptidyl-peptidase (TppA), putative protein level in iTRAQ-116 labelled secreted fraction of drug-resistant Aspergillus fumigatus EMFR-S678P at 0.12 ug/ml after 48 hrs in YPD medium by MS (MS/MS) analysis relative to control"}, "[10]": {"test_system": "Aspergillus fumigatus", "test": "Induction of change in aldehyde dehydrogenase, putative protein level in iTRAQ114 labelled secreted fraction of drug-susceptible Aspergillus fumigatus KU80 delta-akuB at 0.12 ug/ml after 24 hrs in YPD medium by MS (MS/MS) analysis relative to control"}, "[11]": {"test_system": "Aspergillus fumigatus", "test": "Induction of change in Ribosomal protein S28e gene expression in drug-susceptible Aspergillus fumigatus KU80 delta-akuB at 0.12 ug/ml after 24 hrs in YPD medium by microarray analysis relative to control"}, "[12]": {"test_system": "Aspergillus fumigatus", "test": "Induction of change in ubiquitin (UbiC), putative protein level in iTRAQ114 labelled cell wall fraction of drug-susceptible Aspergillus fumigatus KU80 delta-akuB at 0.12 ug/ml after 24 hrs in YPD medium by MS (MS/MS) analysis relative to control"}, "[13]": {"test_system": "Aspergillus fumigatus", "test": "Induction of change in transaldolase protein level in iTRAQ-116 labelled secreted fraction of drug-resistant Aspergillus fumigatus EMFR-S678P at 0.12 ug/ml after 48 hrs in YPD medium by MS (MS/MS) analysis relative to control"}, "[14]": {"test_system": "Aspergillus fumigatus", "test": "Induction of change in stearic acid desaturase (SdeA), putative gene expression in drug-susceptible Aspergillus fumigatus KU80 delta-akuB at 0.12 ug/ml after 48 hrs in YPD medium by microarray analysis relative to control"}, "[15]": {"test_system": "Aspergillus fumigatus", "test": "Induction of change in Mn superoxide dismutase MnSOD gene expression in drug-susceptible Aspergillus fumigatus KU80 delta-akuB at 0.12 ug/ml after 24 hrs in YPD medium by microarray analysis relative to control"}, "[16]": {"test_system": "Aspergillus fumigatus", "test": "Induction of change in phosphoglycerate kinase PgkA, putative protein level in iTRAQ-118 labelled cell wall fraction of drug-susceptible Aspergillus fumigatus KU80 delta-akuB at 0.12 ug/ml after 24 hrs in YPD medium by MS (MS/MS) analysis relative to control"}, "[17]": {"test_system": "Aspergillus fumigatus", "test": "Induction of change in alkaline serine protease gene expression in drug-susceptible Aspergillus fumigatus KU80 delta-akuB at 0.12 ug/ml after 24 hrs in YPD medium by microarray analysis relative to control"}, "[18]": {"test_system": "Aspergillus fumigatus", "test": "Induction of change in ribosomal protein S8 protein level in iTRAQ114 labelled secreted fraction of drug-susceptible Aspergillus fumigatus KU80 delta-akuB at 0.12 ug/ml after 24 hrs in YPD medium by MS (MS/MS) analysis relative to control"}, "[19]": {"test_system": "Aspergillus fumigatus", "test": "Induction of change in cytochrome c protein level in iTRAQ-118 labelled cell wall fraction of drug-susceptible Aspergillus fumigatus KU80 delta-akuB at 0.12 ug/ml after 24 hrs in YPD medium by MS (MS/MS) analysis relative to control"}, "[20]": {"test_system": "Aspergillus fumigatus", "test": "Induction of change in mycelial catalase Cat1 gene expression in drug-susceptible Aspergillus fumigatus KU80 delta-akuB at 0.12 ug/ml after 24 hrs in YPD medium by microarray analysis relative to control"}, "[21]": {"test_system": "Aspergillus fumigatus", "test": "Induction of change in ribosomal protein S15, putative gene expression in drug-susceptible Aspergillus fumigatus KU80 delta-akuB at 0.12 ug/ml after 24 hrs in YPD medium by microarray analysis relative to control"}, "[22]": {"test_system": "Aspergillus fumigatus", "test": "Induction of change in cytosolic small ribosomal subunit S4, putative protein level in iTRAQ114 labelled secreted fraction of drug-susceptible Aspergillus fumigatus KU80 delta-akuB at 0.12 ug/ml after 24 hrs in YPD medium by MS (MS/MS) analysis relative to control"}, "[23]": {"test_system": "Aspergillus fumigatus", "test": "Induction of change in 14-alpha sterol demethylase Cyp51A protein level in iTRAQ121 labelled cell wall fraction of drug-susceptible Aspergillus fumigatus KU80 delta-akuB at 0.12 ug/ml after 48 hrs in YPD medium by MS (MS/MS) analysis relative to control"}, "[24]": {"test_system": "Aspergillus fumigatus", "test": "Induction of change in aconitate hydratase, mitochondrial gene expression in drug-susceptible Aspergillus fumigatus KU80 delta-akuB at 0.12 ug/ml after 48 hrs in YPD medium by microarray analysis relative to control"}, "[25]": {"test_system": "Aspergillus fumigatus", "test": "Induction of change in Ribosomal protein L31e protein level in iTRAQ114 labelled secreted fraction of drug-susceptible Aspergillus fumigatus KU80 delta-akuB at 0.12 ug/ml after 24 hrs in YPD medium by MS (MS/MS) analysis relative to control"}, "[26]": {"test_system": "Aspergillus fumigatus", "test": "Induction of change in cell wall glucanase, putative gene expression in drug-susceptible Aspergillus fumigatus KU80 delta-akuB at 0.12 ug/ml after 48 hrs in YPD medium by microarray analysis relative to control"}}, "note": "This continues a long series; more values of the same kind are listed elsewhere.", "data": [{"smiles": "CC[C@H](C)C[C@H](C)CCCCCCCCC(=O)N[C@H]1C[C@@H](O)[C@@H](NCCN)NC(=O)[C@@H]2[C@@H](O)CCN2C(=O)[C@H]([C@H](O)CCN)NC(=O)[C@H]([C@H](O)[C@@H](O)c2ccc(O)cc2)NC(=O)[C@@H]2C[C@@H](O)CN2C(=O)[C@H]([C@@H](C)O)NC1=O", "note": "[CASPOFUNGIN]", "values": [{"measurement": "fold change (FC)", "setting": "[1]", "result": -3.7}, {"measurement": "fold change (FC)", "setting": "[2]", "result": 1.07}, {"measurement": "fold change (FC)", "setting": "[3]", "result": -3.1}, {"measurement": "fold change (FC)", "setting": "[4]", "result": -1.07}, {"measurement": "fold change (FC)", "setting": "[5]", "result": 2.1}, {"measurement": "fold change (FC)", "setting": "[6]", "result": 1.6}, {"measurement": "fold change (FC)", "setting": "[7]", "result": 2.3}, {"measurement": "fold change (FC)", "setting": "[8]", "result": 1.15}, {"measurement": "fold change (FC)", "setting": "[9]", "result": 1.15}, {"measurement": "fold change (FC)", "setting": "[10]", "result": 2.1}, {"measurement": "fold change (FC)", "setting": "[11]", "result": 3.5}, {"measurement": "fold change (FC)", "setting": "[12]", "result": -1.9}, {"measurement": "fold change (FC)", "setting": "[13]", "result": -1.07}, {"measurement": "fold change (FC)", "setting": "[14]", "result": -2.7}, {"measurement": "fold change (FC)", "setting": "[15]", "result": -9.2}, {"measurement": "fold change (FC)", "setting": "[16]", "result": -3.5}, {"measurement": "fold change (FC)", "setting": "[17]", "result": 5.5}, {"measurement": "fold change (FC)", "setting": "[18]", "result": 1.1}, {"measurement": "fold change (FC)", "setting": "[19]", "result": -3.5}, {"measurement": "fold change (FC)", "setting": "[20]", "result": -4.1}, {"measurement": "fold change (FC)", "setting": "[21]", "result": 3.9}, {"measurement": "fold change (FC)", "setting": "[22]", "result": 1.2}, {"measurement": "fold change (FC)", "setting": "[23]", "result": -2.1}, {"measurement": "fold change (FC)", "setting": "[24]", "result": -2.4}, {"measurement": "fold change (FC)", "setting": "[25]", "result": 1.2}, {"measurement": "fold change (FC)", "setting": "[26]", "result": -2.7}]}]}
